Test results published in patent publication US20250257401A1, “BIOMARKER FOR TUBEROUS SCLEROSIS COMPLEX WITH NO MUTATION IDENTIFIED IN TSC1 OR TSC2 GENE, AND USES THEREOF” (Guangzhou KingMed Transformative Medicine Institute Co., …, priority 2022, published 2025).

What was measured:
Assay type in all cases: cell-based, human
HaCaT cells = assay: Dose-dependent cell viability, preliminary IC50 experiment (HaCaT)
HEK293 cells = assay: Dose-dependent cell viability, preliminary IC50 experiment (HEK293)
IQGAP2-silenced cells = assay: Cell proliferation of IQGAP2-silenced cells after administration of inhibitors (CCK8); details: IQGAP2-silenced HaCaT and HEK293 cells; each inhibitor in a dose of IC50; FIG. 7 and FIG. 8
Text: To verify whether the abnormal IQGAP2 affected cell proliferation, IQGAP2-silenced cells were constructed using an RNAi approach. Since TSC could affect the skin and kidney of the patients, human keratinocytes (HaCaT) cells and human embryonic kidney 293 (HEK 293) cells were chosen as cell models. The shRNA sequence was designed and constructed for the IQGAP2 gene (as shown in Table 1), and IQGAP2-silenced HaCaT cells and IQGAP2-silenced HEK293 cells were obtained by lentiviral transduction. Subsequently, the cell proliferation of IQGAP2-silenced cells was detected at 24, 48, and 72 hours by using Cell Counting Kit 8 (CCK8).
Based upon the above test results, it was hypothesized that IQGAP2 silencing could lead to increased cell proliferation through activating AKT activity and mTORC1 activity. To further verify the pathway, a AKT inhibitor (AKT inhibitor VIII) and mTOR inhibitors (Torkinib and Rapamycin) were used to treat IQGAP2-silenced human keratinocytes (HaCaT cells) and IQGAP2-silenced HEK293 cells, respectively. That is, the pathway was further determined by verifying whether the cell proliferation caused by IQGAP2 silencing can be alleviated by inhibiting the AKT activity and mTORC1 activity (key factors of the mTOR pathway) in IQGAP2-silenced cells with the inhibitors.
Then, HaCaT cells and HEK293 cells were administrated with each inhibitor in a dose of IC50. […]

CC(C)n1nc(-c2cc3cc(O)ccc3[nH]2)c2c(N)ncnc21 [Torkinib]
IC50 (HaCaT cells): 12.5 µM | IC50 (HEK293 cells): 0.781 µM | cell proliferation of IQGAP2-silenced cells (IQGAP2-silenced cells): reduce the cell proliferation
